Measured values from article PMC2843672.
No constants are given. Whether binding was seen depends on the method and setting. In cells and extracts the contact can be indirect. Some binding calls cover weakened binding; strength is not graded here.

Sequences of proteins named here, by UniProt entry; tags and fusion partners are left off.
UniProt P49841: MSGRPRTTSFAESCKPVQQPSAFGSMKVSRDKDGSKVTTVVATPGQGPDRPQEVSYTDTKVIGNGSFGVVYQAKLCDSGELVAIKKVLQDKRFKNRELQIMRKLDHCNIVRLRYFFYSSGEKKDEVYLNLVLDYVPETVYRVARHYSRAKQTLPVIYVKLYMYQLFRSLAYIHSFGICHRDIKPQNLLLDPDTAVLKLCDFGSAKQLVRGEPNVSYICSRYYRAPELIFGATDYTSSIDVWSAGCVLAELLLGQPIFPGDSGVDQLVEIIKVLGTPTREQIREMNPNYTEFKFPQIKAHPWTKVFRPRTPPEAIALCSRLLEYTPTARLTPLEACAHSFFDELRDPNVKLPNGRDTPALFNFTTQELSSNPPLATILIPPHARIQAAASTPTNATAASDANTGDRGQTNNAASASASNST

Target: Glycogen synthase kinase 3β (GSK-3β), wild type (UniProt P49841)
Assay: co-IP; HeLa cells transfected with GSK-3β WT plasmid, harvested after 24 h; clear lysate incubated overnight at 4°C with rabbit anti-GSK-3β antibody (or normal goat IgG), protein A-sepharose beads, five washes with lysis buffer; immunoblot with antibody to PMS2

B1: Mismatch repair protein PMS2 (protein, UniProt P54278 1-862)
chain: MERAESSSTEPAKAIKPIDRKSVHQICSGQVVLSLSTAVKELVENSLDAGATNIDLKLKDYGVDLIEVSDNGCGVEEENFEGLTLKHHTSKIQEFADLTQVETFGFRGEALSSLCALSDVTISTCHASAKVGTRLMFDHNGKIIQKTPYPRPRGTTVSVQQLFSTLPVRHKEFQRNIKKEYAKMVQVLHAYCIISAGIRVSCTNQLGQGKRQPVVCTGGSPSIKENIGSVFGQKQLQSLIPFVQLPPSDSVCEEYGLSCSDALHNLFYISGFISQCTHGVGRSSTDRQFFFINRRPCDPAKVCRLVNEVYHMYNRHQYPFVVLNISVDSECVDINVTPDKRQILLQEEKLLLAVLKTSLIGMFDSDVNKLNVSQQPLLDVEGNLIKMHAADLEKPMVEKQDQSPSLRTGEEKKDVSISRLREAFSLRHTTENKPHSPKTPEPRRSPLGQKRGMLSSSTSGAISDKGVLRPQKEAVSSSHGPSDPTDRAEVEKDSGHGSTSVDSEGFSIPDTGSHCSSEYAASSPGDRGSQEHVDSQEKAPKTDDSFSDVDCHSNQEDTGCKFRVLPQPTNLATPNTKRFKKEEILSSSDICQKLVNTQDMSASQVDVAVKINKKVVPLDFSMSSLAKRIKQLHHEAQQSEGEQNYRKFRAKICPGENQAAEDELRKEISKTMFAEMEIIGQFNLGFIITKLNEDIFIVDQHATDEKYNFEMLQQHTVLQGQRLIAPQTLNLTAVNEAVLIENLEIFRKNGFDFVIDENAPVTERAKLISLPTSKNWTFGPQDVDELIFMLSDSPGVMCRPSRVKQMFASRACRKSVMIGTALNTSEMKKLITHMGEMDHPWNCPHGRPTMRHIANLGVISQN
Q: Which binding does the source give for B1 here?
A: Its binding is “binds”.
